These are yes or no findings as the source states them, for the method shown. For some of these results: Binding seen in cells or lysates may run through a third protein. Some binding calls cover weakened binding; strength is not graded here. For some of these results: Where a sequence is shown, tags or fusion partners need not be part of it. One block for each molecule: values may come before it.
Key:
[1] = molecular target: T1, human MSH5 in the GAL4 activation domain vector (AD) (human) (UniProt O43196); test: yeast two-hybrid assay, GAL4UAS-β-galactosidase reporter
T1 sequence (looked up): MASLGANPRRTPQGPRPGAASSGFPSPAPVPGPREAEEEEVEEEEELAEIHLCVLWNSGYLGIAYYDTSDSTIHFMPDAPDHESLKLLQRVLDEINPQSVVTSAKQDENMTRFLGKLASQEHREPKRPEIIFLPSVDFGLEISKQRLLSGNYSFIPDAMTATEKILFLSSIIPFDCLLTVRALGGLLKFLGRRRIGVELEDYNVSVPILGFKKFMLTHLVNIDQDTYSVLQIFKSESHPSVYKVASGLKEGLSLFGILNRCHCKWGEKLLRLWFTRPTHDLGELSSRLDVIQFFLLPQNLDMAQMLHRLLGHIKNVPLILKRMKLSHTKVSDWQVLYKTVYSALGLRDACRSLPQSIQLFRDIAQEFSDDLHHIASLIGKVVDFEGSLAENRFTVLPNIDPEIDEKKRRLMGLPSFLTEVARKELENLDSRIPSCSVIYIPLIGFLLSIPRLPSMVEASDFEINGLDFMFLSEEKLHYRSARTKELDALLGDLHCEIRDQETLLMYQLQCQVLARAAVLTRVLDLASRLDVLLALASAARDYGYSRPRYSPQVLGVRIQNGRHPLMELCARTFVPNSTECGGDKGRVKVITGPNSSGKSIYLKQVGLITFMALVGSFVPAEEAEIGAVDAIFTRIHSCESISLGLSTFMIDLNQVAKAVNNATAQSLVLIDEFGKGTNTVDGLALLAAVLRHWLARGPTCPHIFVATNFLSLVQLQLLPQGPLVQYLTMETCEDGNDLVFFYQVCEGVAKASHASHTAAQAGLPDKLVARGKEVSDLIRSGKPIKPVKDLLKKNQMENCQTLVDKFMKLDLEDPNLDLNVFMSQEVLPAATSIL

Chains of the proteins cited; added tags and fusions are not shown. Lines headed by an entry give the natural chain unless they say otherwise; changes in a name come on top.
UniProt P04386: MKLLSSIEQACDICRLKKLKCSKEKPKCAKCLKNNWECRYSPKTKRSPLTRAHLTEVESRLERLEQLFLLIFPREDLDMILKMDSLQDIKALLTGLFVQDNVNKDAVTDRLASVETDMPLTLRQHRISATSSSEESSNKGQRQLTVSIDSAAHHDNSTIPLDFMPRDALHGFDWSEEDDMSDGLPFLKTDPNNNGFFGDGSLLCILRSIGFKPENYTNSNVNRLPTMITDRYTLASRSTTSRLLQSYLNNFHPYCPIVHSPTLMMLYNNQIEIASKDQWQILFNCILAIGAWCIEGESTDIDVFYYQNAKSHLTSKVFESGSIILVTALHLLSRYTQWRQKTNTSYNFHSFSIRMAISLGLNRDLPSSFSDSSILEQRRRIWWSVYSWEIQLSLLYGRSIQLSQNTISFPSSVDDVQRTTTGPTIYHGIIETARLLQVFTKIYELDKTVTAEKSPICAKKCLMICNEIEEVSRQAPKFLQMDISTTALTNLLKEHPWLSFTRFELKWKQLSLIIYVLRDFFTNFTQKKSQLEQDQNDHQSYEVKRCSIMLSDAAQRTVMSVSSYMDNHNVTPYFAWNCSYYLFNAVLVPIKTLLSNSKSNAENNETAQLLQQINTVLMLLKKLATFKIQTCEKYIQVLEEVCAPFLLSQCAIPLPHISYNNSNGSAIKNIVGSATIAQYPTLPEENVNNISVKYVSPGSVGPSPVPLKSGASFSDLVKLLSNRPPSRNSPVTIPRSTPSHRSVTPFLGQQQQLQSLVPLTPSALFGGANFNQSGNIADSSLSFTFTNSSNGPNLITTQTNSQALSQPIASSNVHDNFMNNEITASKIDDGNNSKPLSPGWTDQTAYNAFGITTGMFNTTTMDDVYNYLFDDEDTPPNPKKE

[2] = molecular target: T1, human MSH5 in the GAL4 activation domain vector (AD) (human); test: yeast two-hybrid assay
[3] = molecular target: T2, mouse MSH5 (endogenous, mouse testicular lysates) (mouse) (UniProt Q9QUM7); test: co-immunoprecipitation from mouse testicular lysates (IP anti-MSH4, blot anti-MSH5)
T2 sequence (looked up): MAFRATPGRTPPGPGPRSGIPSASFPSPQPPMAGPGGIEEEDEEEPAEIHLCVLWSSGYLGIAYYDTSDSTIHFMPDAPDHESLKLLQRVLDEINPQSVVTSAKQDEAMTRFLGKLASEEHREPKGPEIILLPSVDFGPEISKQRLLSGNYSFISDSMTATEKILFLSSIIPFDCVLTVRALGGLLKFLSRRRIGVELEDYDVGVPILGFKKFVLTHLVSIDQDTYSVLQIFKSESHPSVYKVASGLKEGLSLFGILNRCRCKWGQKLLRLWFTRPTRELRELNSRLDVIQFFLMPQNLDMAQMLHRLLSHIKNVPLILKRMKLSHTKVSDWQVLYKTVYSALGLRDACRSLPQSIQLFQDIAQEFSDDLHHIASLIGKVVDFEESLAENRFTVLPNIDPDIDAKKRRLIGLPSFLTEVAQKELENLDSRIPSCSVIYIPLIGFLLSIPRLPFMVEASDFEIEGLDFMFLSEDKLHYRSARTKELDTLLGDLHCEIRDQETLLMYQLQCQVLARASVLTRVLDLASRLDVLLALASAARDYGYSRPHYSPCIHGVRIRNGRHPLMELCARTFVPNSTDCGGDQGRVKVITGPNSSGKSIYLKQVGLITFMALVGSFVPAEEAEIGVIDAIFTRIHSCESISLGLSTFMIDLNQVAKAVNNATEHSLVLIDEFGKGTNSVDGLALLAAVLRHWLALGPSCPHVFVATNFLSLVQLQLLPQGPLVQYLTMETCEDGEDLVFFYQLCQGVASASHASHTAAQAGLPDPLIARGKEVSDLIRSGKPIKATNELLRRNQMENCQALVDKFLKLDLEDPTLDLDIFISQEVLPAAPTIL

[4] = molecular target: T3, mouse MSH4 (endogenous, mouse testicular lysates) (mouse) (UniProt Q99MT2); test: reciprocal co-immunoprecipitation from mouse testicular lysates
T3 sequence (looked up): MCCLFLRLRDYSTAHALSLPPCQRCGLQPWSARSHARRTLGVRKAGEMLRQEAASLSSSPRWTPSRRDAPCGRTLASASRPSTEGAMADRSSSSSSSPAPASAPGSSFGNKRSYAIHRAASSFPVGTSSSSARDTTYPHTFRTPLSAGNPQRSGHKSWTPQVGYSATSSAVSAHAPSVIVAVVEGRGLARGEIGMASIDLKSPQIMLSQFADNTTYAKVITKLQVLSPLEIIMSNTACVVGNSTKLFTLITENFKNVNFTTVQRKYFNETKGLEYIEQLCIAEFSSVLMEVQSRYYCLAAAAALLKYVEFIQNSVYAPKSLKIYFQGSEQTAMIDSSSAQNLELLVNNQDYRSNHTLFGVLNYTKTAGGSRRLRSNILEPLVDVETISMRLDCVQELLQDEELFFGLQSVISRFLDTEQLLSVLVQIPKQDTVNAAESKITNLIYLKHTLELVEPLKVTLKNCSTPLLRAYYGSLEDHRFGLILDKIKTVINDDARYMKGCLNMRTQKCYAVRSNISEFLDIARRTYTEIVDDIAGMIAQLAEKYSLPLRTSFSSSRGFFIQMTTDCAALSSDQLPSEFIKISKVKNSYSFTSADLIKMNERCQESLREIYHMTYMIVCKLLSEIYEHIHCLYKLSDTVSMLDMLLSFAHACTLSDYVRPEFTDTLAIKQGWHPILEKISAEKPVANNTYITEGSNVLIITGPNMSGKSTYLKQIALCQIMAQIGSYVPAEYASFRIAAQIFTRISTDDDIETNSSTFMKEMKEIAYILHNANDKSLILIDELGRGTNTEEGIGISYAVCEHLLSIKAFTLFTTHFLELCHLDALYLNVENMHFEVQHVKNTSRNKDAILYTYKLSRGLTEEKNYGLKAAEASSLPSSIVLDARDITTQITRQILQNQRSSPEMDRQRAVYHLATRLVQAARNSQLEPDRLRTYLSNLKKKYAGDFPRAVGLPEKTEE

- binding [1]: binds
- binding [2]: binds
Molecule: human MSH4 in the GAL4 DNA-binding domain vector (DBD) (from UniProt P04386 1-147; O15457 1-936)

- binding [3]: binds
B1: mouse MSH4 (endogenous, mouse testicular lysates) (protein, UniProt Q99MT2 1-958, looked up)
chain: T3 sequence (looked up)

- binding [4]: binds
B2: mouse MSH5 (endogenous, mouse testicular lysates) (protein, UniProt Q9QUM7 1-833, looked up)
chain: T2 sequence (looked up)
